Patent publication US9532994B2, “Agents and methods for enhancing bone formation by oxysterols in combination with bone morphogenic proteins” (THE REGENTS OF THE UNIVERSITY OF CALIFORNIA, priority 2003, dated 2017)

Legend:
marrow stromal cells = experiment: Osteogenic activity/effects of oxysterol combinations in marrow stromal cells, readout not specified; type: cell-based, mouse; details: SC-560 at 1-20 μM, M2 cells
[1] = tested on: M2-10B4 mouse marrow stromal cell line; experiment: Matrix mineralization in M2 cells (von Kossa staining, 45Ca incorporation assay); type: cell-based; details: with 22R+20S (2.5 μM each), 10 days, 45Ca incorporation (FIGS. 9B, 9F)
Description: (§1) Cells: M2-10B4 mouse marrow stromal cell line obtained from American Type Culture Collection (ATCC, Rockville, Md., U.S.A.) was derived from bone marrow stromal cells of a (C57BL/6J×C3H/HeJ) F1 mouse, and support human and murine myelopoiesis in long-term cultures (as per ATCC) and have the ability to differentiate into osteoblastic and adipocytic cells. Unless specified, these cells were cultured in RPMI 1640 containing 10% heat-inactivated FBS, and supplemented with 1 mM sodium pyruvate, 100 U/ml penicillin, and 100 […] (all from Irvine Scientific).
Von Kossa and oil red O staining—Matrix mineralization in cell monolayers was detected by silver nitrate staining as previously described. […]
^45Ca incorporation assay—Matrix mineralization in cell monolayers was quantified using the ^45Ca incorporation assay as previously described. […]
M2 cells were treated with control vehicle (C) or a combination of 22R and 20S oxysterols at increasing concentrations. After 14 days, matrix mineralization in cultures was quantified using a ^45Ca incorporation assay. […]
(§2) (A) M2 cells at confluence were pretreated for 4 hours with control vehicle (C) or 10 μM COX-1 inhibitor SC-560 (SC) in osteogenic medium as described earlier. […] After 3 days, ALP activity was measured as described earlier. […] After 3 days, ALP activity was measured as previously described. […]

[2] = tested on: osteocalcin mRNA in M2 cells; experiment: Northern blotting for osteocalcin mRNA in M2 cells; type: cell-based, mouse; details: 20 μM SC with 22R+20S, 8 days (FIGS. 9C and 9D)
Description: RNA isolation and Northern blot analysis - Following treatment of cells under appropriate experimental conditions, total RNA was isolated using the RNA isolation kit from Stratagene (La Jolla, Calif., U.S.A.). Total RNA ([…]) was run on a 1% agarose/formaldehyde gel and transferred to Duralon-UV membranes (Strategene, CA, U.S.A.) and cross-linked with UV light. The membranes were hybridized overnight at 60° C. with ^32P-labeled mouse osteocalcin cDNA probe, mouse lipoprotein lipase (LPL), mouse adipocyte protein 2 (aP2) PCR-generated probes, human 28S or 18S rRNA probes obtained from Geneka Biotechnology (Montreal, Quebec, Canada) and Maxim Biotech (San Francisco, CA, U.S.A.), respectively. […] The extent of gene induction was determined by densitometry.
M2 cells at confluence were treated with control vehicle (C) or a combination of 22R and 20S oxysterols (5 μM each) in osteogenic medium. After 4 and 8 days, total RNA from duplicate samples was isolated and analyzed for osteocalcin (Osc) and 28S rRNA expression by Northern blotting as described. […]
as §2

[3] = tested on: M2-10B4 mouse marrow stromal cell line; experiment: Alkaline phosphatase (ALP) activity assay in M2 cells; type: cell-based; details: with 22R+20S (2.5 μM each), 3 days; SC 10 μM, ACA 25 μM, MC 20 μM (FIGS. 9A, 9E)
Description: as §1, with “Scientific). […]” for “Scientific).”
Test 1: M2 cells at confluence were treated with control vehicle (C), or 10 μM oxysterols, in an osteogenic medium consisting of RPMI 1640 to which 10% fetal bovine serum (FBS), 50 μg/ml ascorbate and 3 mM beta-glycerophosphate (βGP) were added. After 3 days of incubation, alkaline phosphatase (ALP) activity was determined in cell homogenates by a calorimetric assay. […]
M2 cells at confluence were treated in osteogenic medium with control vehicle (C) or a combination of 22R and 20S oxysterols, at the indicated concentrations. ALP activity was measured after 3 days as described above. […]
Test 2: M2 cells were grown in RPMI medium containing 10% fetal bovine serum (FBS). […] After 4 days, alkaline phosphatase activity was determined in whole cell lysates and normalized to protein. […]

COc1ccc(-n2nc(C(F)(F)F)cc2-c2ccc(Cl)cc2)cc1 [SC-560]
inhibition of osteogenic effects of the 22R+20S and 22S+20S oxysterol combinations (marrow stromal cells): significantly inhibited
inhibition of oxysterol-induced mineralization [1]: inhibited
inhibition of oxysterol-induced osteocalcin gene expression [2]: inhibited
inhibition of oxysterol-induced alkaline phosphatase activity [3]: inhibited
